Measurements taken from PMC8346516 (Nature Communications, 2021).

Chains of the proteins cited; added tags and fusions are not shown.
UniProt Q8NHX9: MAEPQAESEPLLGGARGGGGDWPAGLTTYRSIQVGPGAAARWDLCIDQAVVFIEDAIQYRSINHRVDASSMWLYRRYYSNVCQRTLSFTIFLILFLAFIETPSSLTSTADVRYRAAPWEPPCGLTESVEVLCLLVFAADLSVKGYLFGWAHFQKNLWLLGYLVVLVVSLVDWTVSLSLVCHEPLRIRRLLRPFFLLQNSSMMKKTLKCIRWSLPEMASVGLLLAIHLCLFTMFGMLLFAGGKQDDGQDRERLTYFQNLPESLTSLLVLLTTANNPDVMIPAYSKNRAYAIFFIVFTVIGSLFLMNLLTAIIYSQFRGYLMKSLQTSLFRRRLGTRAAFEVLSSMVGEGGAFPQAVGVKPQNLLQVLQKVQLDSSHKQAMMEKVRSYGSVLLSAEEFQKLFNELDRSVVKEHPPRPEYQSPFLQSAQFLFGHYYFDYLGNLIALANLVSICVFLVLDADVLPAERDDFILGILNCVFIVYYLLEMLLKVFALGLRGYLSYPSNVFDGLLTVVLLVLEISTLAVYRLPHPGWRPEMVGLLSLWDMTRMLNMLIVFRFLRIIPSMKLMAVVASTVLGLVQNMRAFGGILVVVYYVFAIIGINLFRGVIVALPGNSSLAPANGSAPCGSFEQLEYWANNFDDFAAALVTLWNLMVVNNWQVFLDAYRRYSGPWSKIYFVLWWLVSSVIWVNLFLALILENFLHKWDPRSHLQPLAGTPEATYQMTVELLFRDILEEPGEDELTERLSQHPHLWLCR
UniProt Q3MHD2: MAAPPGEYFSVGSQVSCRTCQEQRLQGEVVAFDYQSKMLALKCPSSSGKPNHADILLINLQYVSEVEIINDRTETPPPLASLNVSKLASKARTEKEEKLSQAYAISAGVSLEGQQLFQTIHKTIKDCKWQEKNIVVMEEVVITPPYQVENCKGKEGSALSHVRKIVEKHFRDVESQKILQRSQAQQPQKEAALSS

Molecular target: human TPC2 (TPC2-eGFP-FLAG) (human) (UniProt Q8NHX9)
Test: affinity purification with mass spectrometry; anti-FLAG antibody on protein-A agarose; SILAC heavy/light HEK293 cells expressing TPC1-eGFP-FLAG or TPC2-eGFP-FLAG against eGFP-FLAG only; lysis in 2% dodecyl maltoside, 150 mM NaCl, 20 mM Tris-HCl pH 7.4; overnight at 4 °C; eluted with FLAG peptide; LC-MS/MS

binding: binds
Substance: endogenous Lsm12 (from UniProt Q3MHD2 1-195)

These are yes or no findings as the source states them, for the method shown. In cells and extracts the contact can be indirect. These calls come from enrichment with a bait or labelling near it, and not all partners need be listed.
